# Screening data, single-dose tests

Data taken from ChEMBL document CHEMBL3988442, “University of Dundee, Small-Polar-MMV Screening Library” (2021).

Each number is a percent effect as filed.
The controls that fix the scale are not given in the record; negative values are as filed.
This is an unselected part of the compounds tested.

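Whole-parasite assay of Trypanosoma brucei over 72 hours; the read-out is not stated. Tested at 30 µM. Direction is inferred from retests: higher values go with stronger inhibition. Values scatter widely below zero; nearly all retest evidence comes from the higher of the two concentrations used. Of about 64,000 compounds tested this way, about 940 (1.5%) reached 50% or more in at least one test.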

Result for Cc1ccccc1CC(C)NCc1c(C)nn(C)c1N1CCOCC1.Cl (stereo not given) was 19.88%.
Result for CCCc1nc(C(=O)NC(COC)c2ccnn2C)cs1 (stereo not given) was -36.86%.
Result for Cc1ncsc1C(=O)N1CCC(O)(Cn2c(C)cc3ccncc32)CC1 was -5.063%.
Result for CCc1c(C)nn2c(O)cc(C3CCN(C(=O)c4cnn(C)c4)C3)nc12 (stereo not given) was -13.28%.
Result for CCN(CC)S(=O)(=O)NCC1COc2ccccc2O1 (stereo not given) was -41.47%.
Result for CN(C)CC(=O)N1CCC2(CC1)CN(c1ncccn1)CCO2.O=C(O)C(F)(F)F was -17.15%.
Result for CC(C)CNC(=O)C1(Cc2ccccc2-c2cccs2)CCNC1 (stereo not given) was 100.9%.
Result for Cc1ccc(-c2nnc(C3CCCN3S(=O)(=O)c3cnn(C)c3C)o2)s1 (stereo not given) was 3.193%.
Result for Cc1cccc2sc(NC(=O)CN3CCC(C)CC3)nc12 was -5.902%.
Result for Cc1ccoc1-c1nnc(CNC2CCCN(c3cccnn3)C2)o1 (stereo not given) was 3.988%.
Result for O=C(C1CCOCC1)N1CCc2ncc(CN3CCCCC3)n2CC1 was -235.7%.
Result for Cc1ccc2c(-c3nc4c([nH]3)CCNC4C(=O)O)cccc2n1 (stereo not given) was 10.69%.
Result for Cn1c(-c2ccccc2)nn(CCNS(=O)(=O)c2ccccc2Cl)c1=O was 3.161%.
Result for CC(C)S(=O)(=O)NCC1CCCN(C(=O)c2cccnc2)C1 (stereo not given) was -61.16%.
Result for Cn1ccnc1C(=O)NCc1cnc2n1CCN(CC1CC1)CC2.O=C(O)C(F)(F)F.O=C(O)C(F)(F)F was -46.77%.
Result for CCNC(=O)[C@@H]1C[C@@H](N)CN1C(=O)C1(c2ccc(OC)cc2)CCCC1 was -31.63%.
Result for c1csc(-c2cc(CN3CCN(c4nccs4)CC3)no2)c1 was -6.679%.
Result for CCCn1ncc(C2CC(=O)NCc3nc4cc(C)ccn4c32)c1C (stereo not given) was -16.09%.
Result for CN(Cc1cncs1)C1CCN(C(=O)OC(C)(C)C)CC1 was 10.45%.
Result for CC(C)c1nc(CN2CCN(CC3CCCO3)CC2)cs1 (stereo not given) was -14.63%.
Result for O=C(O)C(F)(F)F.[H][C@@]12COC[C@@H](C(=O)N3CCCC3)[C@]1([H])CN(c1ccncn1)C2 was -174.9%.
Result for COc1ccccc1C(C)CNC(=O)c1[nH]ncc1Br (stereo not given) was -33.63%.
Result for Cn1nnc2c1CCN(Cc1nccs1)C2COCc1ccccc1.O=C(O)C(F)(F)F (stereo not given) was 11.53%.
Result for c1ccc(COCCN2CCc3[nH]cnc3C2c2ccco2)cc1 (stereo not given) was -26.73%.
Result for [H][C@]12CN(Cc3nc(C)c[nH]3)CC[C@@]1(O)CCN(C(C)=O)C2 was -43.82%.
Result for Cc1nn(C)c(Cl)c1C1CCCN1c1ncnc2c1CCC2 (stereo not given) was -32.6%.
Result for COCc1nnc(C(=O)N2CC(N3CCCCC3)C2)o1 was -14.14%.
Result for CCCNC(=O)c1nc2c(o1)CN(C(C)=O)C2 was -1.388%.
Result for O=C(c1cc(-n2cccn2)ccc1Cl)N1CCCC(N2CCCC2)C1 (stereo not given) was -5.667%.
Result for Cc1cc(F)cc(NC(=O)N(C)CC(C)(CO)CO)c1 was -32.38%.
Result for Cc1ccc(C(=O)N2CCn3c(COCC4CC4)cnc3C2C)s1 (stereo not given) was 43.07%.
Result for CC(CNC1CCN(c2ccccn2)CC1)Oc1ccc(F)cc1 (stereo not given) was 7.643%.
Result for COCc1cc(CN(C)C(=O)c2c[nH]nc2-c2cccc(F)c2)n[nH]1 was -84%.
Result for CO[C@H]1CCN(C(=O)c2cc(C)on2)[C@H]1Cc1ccncc1 was -14.5%.
Result for Cc1cc(N(C)C)nc(C2(C)CCCN2C(=O)c2ccccc2)n1 (stereo not given) was 19.94%.
Result for CCN(CC)CCNc1nc(C(C)C)nc2c(C)nn(CC)c12 was 5.176%.
Result for O=C(O)C(F)(F)F.[H][C@@]12CCCO[C@]1([H])[C@H](NC(=O)CC1CC1)CN(Cc1cnn(C)c1)C2 was -11.88%.
Result for Cc1ccc(SC2CCCC2)c(C(=O)NCc2n[nH]c(=O)[nH]2)c1 was -22.82%.
Result for O=C(O)C(F)(F)F.O=C1CC[C@]2(CC[C@@H](NCc3ccoc3)CC2)N1 was -25.85%.
Result for Cc1ccccc1NC(=O)NCC(C)(O)c1cccs1 (stereo not given) was -47.82%.
Result for Cc1noc(C)c1CN1CCCCC1CCc1ccc(O)cc1 (stereo not given) was -3.587%.
Result for CCc1ccc(S(=O)(=O)N2CCCC(c3ncc[nH]3)C2)s1 (stereo not given) was -4.481%.
Result for O=C(NCCNc1cnccn1)N1CCN(Cc2cccnc2)CC1 was 10.19%.
Result for CN1CCN(CC2CC2)C(=O)C12CCN(c1nccs1)CC2 was -58.44%.
Result for Cc1cnc(N2CCC3(CC2)CC3CNC(=O)C2CCC2)nc1.O=C(O)C(F)(F)F (stereo not given) was -0.06392%.
Result for CN(Cc1ccc(O)cc1)C(=O)NCc1nnc2n1CCCCC2 was -3.186%.
Result for CN(Cc1cc(=O)c(O)co1)C1CCN(c2ccc(F)cc2)CC1 was -34.71%.
Result for O=C(CN1CCOCS1(=O)=O)NCc1ccccc1 was -13.4%.
Result for Cc1nccn1Cc1nnc(C2CCN(c3ccncc3F)CC2)n1C was -33.85%.
Result for CCOc1ccccc1C(=O)N1CC(=O)N(C2CCC2)CC(O)C1 (stereo not given) was -25.36%.
Result for O=C1OC2(CCNCC2)CN1CC(=O)N1CCCC1c1ccco1 (stereo not given) was -4.875%.
Result for Cc1cn2nc(N3CCN(Cc4nc(C(C)C)no4)CC3)sc2n1 was -8.942%.

Repeated from the top, 6 entries:

SMILES	effect
Cc1ccccc1CC(C)NCc1c(C)nn(C)c1N1CCOCC1.Cl (stereo not given)	19.88
CCCc1nc(C(=O)NC(COC)c2ccnn2C)cs1 (stereo not given)	-36.86
Cc1ncsc1C(=O)N1CCC(O)(Cn2c(C)cc3ccncc32)CC1	-5.063
CCc1c(C)nn2c(O)cc(C3CCN(C(=O)c4cnn(C)c4)C3)nc12 (stereo not given)	-13.28
CCN(CC)S(=O)(=O)NCC1COc2ccccc2O1 (stereo not given)	-41.47
CN(C)CC(=O)N1CCC2(CC1)CN(c1ncccn1)CCO2.O=C(O)C(F)(F)F	-17.15